From US20100099871A1, “ANTI-PSYCHOTIC COMPOUNDS AND PHARMACEUTICAL COMPOSITIONS THEREOF” (priority 2008, published 2010)
At least one compound was matched to its structure with a doubt left.

Tests used:
[1] = test system: pre-frontal cortex acetylcholine release; test: In vivo microdialysis, pre-frontal cortex acetylcholine release; parameters: species or system male Sprague-Dawley rats; conditions: rat microdialysis (FIG. 13); LMD-00100t at the maximum dose tested, data not shown
Procedure: (§1) In vivo microdialysis studies were conducted according to established methods. In summary, two cannulae with microdialysis probes were implanted via stereotaxic surgery (one each into two separate brain regions), into the medial prefrontal cortex and nucleus accumbens of male Sprague-Dawley rats weighing from 250 g to 300 g. After recovery from surgery, a solution was circulated through the probes on test days collecting extracellular synaptic fluid at 30-minute intervals and delivering it to an HPLC for analysis of extracellular dopamine concentrations in real time following antipsychotic compound dosing. Simultaneously, an aliquot was taken and frozen for later mass spectrometric determination of acetylcholine concentrations.

[2] = test system: pre-frontal cortex dopamine release; test: In vivo microdialysis, pre-frontal cortex dopamine release; parameters: species or system male Sprague-Dawley rats; conditions: rat microdialysis, as a function of time following administration (FIG. 11, FIG. 14)
Procedure: as §1

CCN1CCCC1C/N=C(\C)c1c(OC)cccc1OC (centres unmarked) [LMD-00100t, (E)-N-(1-(2,6-dimethoxyphenyl)ethylidene)-1-(1-ethylpyrrolidin-2-yl)methanamine]
cortical acetylcholine (ACh) efflux [1]: did not increase | pre-frontal cortex dopamine release [2]: significant increase
